Some of the results follow. These are further read-outs of the screen, such as a control signal, another cell line or another target. No call is given for them. Most of these compounds were active or inconclusive in the main read-out, so they are no random draw. Words in brackets tell the shape of the fitted curve; partial curves, single points and poor fits give uncertain potencies.
Test: qHTS Assay to Find Inhibitors of Chronic Active B-Cell Receptor Signaling
Settings: ABC-DLBCL IkBa-CBG/CBR reporter, luminescence ratio (green luciferase fused to IkBa over red control in TMD8 lymphoma cells), 4 h
Outline: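 Compounds up to 46 uM were incubated four hours with TMD8 cells whose green CBG68 luciferase is fused to IkappaBalpha; red CBR luminescence normalised the signal, and concentration-effect curves were fitted to fusion, red and ratio data.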

[1] = measured here: CBR red luminescence, cell number
[2] = measured here: IkBa-CBG green luminescence

| SMILES | AC50 [1] | AC50 [2] |
| --- | --- | --- |
| COc1ccccc1-c1oc2ccccc2c1C#CC1(O)CCCCC1 | 6.51 µM [falling, single point] | – |
| COc1cccc(NC(=O)CN2C(=O)NC(C)(c3ccc(C)cc3)C2=O)c1 (configuration not stated) | 0.631 µM [falling, full curve, poor fit] | – |
| CC(C)(C)NC(=O)Cn1nc(C(F)(F)F)c2c1CCCC2 | 7.94 µM [rising, partial curve] | – |
| O=C1c2ccccc2C(=O)C2OC12 (configuration not stated) | 0.316 µM [rising, full curve, poor fit] | – |
| Cc1cccc(Nc2cc(=O)[nH]c(=O)[nH]2)c1 | 23.1 µM [falling, single point] | – |
| Cc1cc(=O)[nH]c(N/N=C/c2c(F)c(F)c(F)c(F)c2F)n1 | 2.51 µM [falling, partial curve, poor fit] | – |
| Cc1ccc(S(=O)c2snnc2C)cc1 (configuration not stated) | 0.708 µM [rising, full curve, poor fit] | – |
| OCCCc1nc2ccccc2n1CCOc1ccccc1 | 11.2 µM [falling, partial curve] | – |
| Cn1nnnc1SCCNCc1ccc(F)cc1 | 3.55 µM [rising, full curve] | – |
| Cc1ccc(C)c(-n2cc(CNCCc3cnccn3)c(-c3ccccc3)n2)c1 | 0.501 µM [rising, partial curve, poor fit] | – |
| COc1cccc(C(=O)N(C)c2nnc(-c3ccncc3)s2)c1 | 10 µM [rising, partial curve, poor fit] | – |
| Cc1cccc(-c2nc(CS(=O)CC(=O)NCc3cccs3)c(C)o2)c1 (configuration not stated) | 1.3 µM [rising, full curve, poor fit] | – |
| CC(C)C(=O)Nc1cccc(-c2nc3ccccc3c(=O)o2)c1 | 16.4 µM [falling, single point] | – |
| O=C(O)c1ccc(N/N=C/c2cccc3cccnc23)cc1 | 0.1 µM [falling, partial curve, poor fit] | – |
| CCOC(=O)c1c(C)[nH]c(C(=O)N/N=C/c2cc([N+](=O)[O-])ccc2O)c1C | 15.8 µM [falling, partial curve, poor fit] | – |
| COc1ccc(-c2cc3cc(-c4cc(OC)c(OC)c(OC)c4)ccc3o2)cc1 | 7.31 µM [rising, partial curve, poor fit] | – |
| Cc1ccc(NC(=S)N2CCC(N(C)CC3CCCO3)CC2)cc1C (configuration not stated) | 12.6 µM [rising, partial curve, poor fit] | – |
| Cc1nc(-c2ccccc2)sc1C(=O)CSc1ccc(F)cc1 | 1.64 µM [rising, full curve] | 3.26 µM [rising, full curve, poor fit] |
| O=C(O)CCSc1nc2ccc(Br)cc2[nH]1 | 35.5 µM [falling, single point] | – |
| N#CCCN1CCN(C(=S)c2ccc(-c3cc(Cl)ccc3Cl)o2)CC1 | 1.12 µM [falling, full curve, poor fit] | – |
| COc1ccc(NC(=O)CN(C)C(=O)c2cccc(Oc3ccccc3)c2)cc1 | 29.1 µM [falling, single point] | – |
| O=C1/C(=C/c2cccc(F)c2)Oc2cc(O)ccc21 | – | 12.6 µM [rising, partial curve, poor fit] |

Reformatted with tabs: 3 of the compounds above.
SMILES	AC50 [1]	AC50 [2]
O=C1c2ccccc2C(=O)C2OC12 (configuration not stated)	0.316 µM [rising, full curve, poor fit]	–
COc1cccc(C(=O)N(C)c2nnc(-c3ccncc3)s2)c1	10 µM [rising, partial curve, poor fit]	–
O=C(O)CCSc1nc2ccc(Br)cc2[nH]1	35.5 µM [falling, single point]	–

The list goes on.

| SMILES | AC50 [1] | AC50 [2] |
| --- | --- | --- |
| COc1nc(-c2ccccc2)ncc1S(=O)(=O)c1ccccc1 | 11.2 µM [rising, partial curve, poor fit] | – |
| Cn1cccc1C(=O)OCc1csc(-c2ccccc2)n1 | 5.01 µM [falling, partial curve] | – |
| CC(C)Cc1cc(C(=O)NCCc2ccccc2)no1 | 18.4 µM [falling, single point] | – |
| COc1ccc(NC(=O)c2cc3c(CO)cnc(C)c3oc2=Nc2cccc(C)c2)c(OC)c1 | 35.5 µM [rising, single point] | – |
| O=C(CN1C(=O)c2cccnc2Oc2ccc(Cl)cc21)NC1CCCC1 | 3.55 µM [falling, partial curve, poor fit] | – |
| O=C(Nc1cccc(F)c1)Nc1ccc2c(c1)C(=O)OC2 | 0.891 µM [rising, full curve, poor fit] | – |
| CCCCn1c(NS(=O)(=O)c2ccc(C)cc2)c(S(=O)(=O)c2ccccc2)c2nc3ccccc3nc21 | – | 3.66 µM [falling, full curve, poor fit] |
| COc1ccccc1/C=C1\SC(=S)N(N2C(=O)CCCC2=O)C1=O | 12.6 µM [falling, partial curve, poor fit] | – |
| O=[N+]([O-])c1cc(O)c2ncccc2c1 | 0.447 µM [rising, partial curve, poor fit] | 1.26 µM [falling, full curve, poor fit] |
| COc1ccc(C2Nc3ccccc3C(=O)N2Cc2ccco2)cc1CN1C(=O)c2ccccc2C1=O (configuration not stated) | 3.55 µM [falling, full curve] | – |
| CC(=O)Nc1ccc(/C=N/Nc2nc3ccccc3[nH]2)cc1 | 18.4 µM [falling, single point] | – |
| Cc1ccc(NC(=O)c2cnc(SCC(=O)N3CCOCC3)n(C)c2=O)cc1 | 10 µM [falling, single point] | – |
| COC(=O)COc1cccc(NC(=O)c2ccc(Cl)cc2)c1 | 15.8 µM [falling, single point] | – |
| CCOC(=O)N1CCN(C(=O)CCCOc2ccccc2)CC1 | 29.1 µM [rising, single point] | – |
| CCOc1ccccc1NC(=O)CC1SC(=N)N(c2ccccc2)C1=O (configuration not stated) | 35.5 µM [falling, single point] | – |
| O=Cc1ccc(-c2ccc(C(=O)O)cc2)o1 | 5.01 µM [falling, partial curve] | – |
| COc1ccc(CN2CCN(Cc3cccc(OC)c3)C(CCO)C2)cc1 (configuration not stated) | 6.31 µM [rising, single point] | – |
| Cc1ccc2c(=O)[nH]c(Nc3nc(C)cc(-c4ccccc4)n3)nc2c1 | 0.282 µM [falling, full curve, poor fit] | – |
| CN1CCN(c2oc(/C=C/c3ccccc3)nc2C#N)CC1 | 35.5 µM [rising, single point] | – |
| COc1ccc(NC(=O)c2sccc2C)cn1 | 15.8 µM [falling, partial curve, poor fit] | – |
| CCOC(=O)N1CCC(NC(=O)c2ccc3c(c2)N=C(C)c2c(C)ccc(C)c2S3)CC1 | 3.55 µM [rising, single point] | 7.08 µM [falling, full curve] |
| Cc1cc(Cn2nnnc2-c2ccncc2)cc(C)c1O | 5.01 µM [rising, full curve, poor fit] | – |

| SMILES | AC50 [1] | AC50 [2] |
| --- | --- | --- |
| COC(=O)c1ccccc1NC(=O)c1cccs1 | 25.9 µM [rising, single point] | – |
| CCCCNS(=O)(=O)c1ccc2nc(-c3cccnc3)cc(C(=O)NCC(OC)OC)c2c1 | 10 µM [rising, partial curve, poor fit] | – |
| COc1ccc(-n2c(COc3ccc(Cl)cc3)nnc2SCc2ccc(C#N)cc2)cc1 | 2.91 µM [falling, full curve] | – |
| N=c1c2c(ncn1CCN1CCOCC1)Oc1ccc3ccccc3c1C2c1ccccc1 (configuration not stated) | 3.26 µM [falling, partial curve, poor fit] | – |
| COc1ccc(N2C(=O)N3[C@H](c4ccc(Cl)cc4)[C@@H]4C(=O)N(C5CCCCC5)C(=O)[C@@H]4[C@]3(C)C2=O)cc1 | – | 3.55 µM [rising, full curve, poor fit] |
| COc1ccc(S(=O)(=O)Nc2ccc3c(c2)C(=O)N([C@H](C)CO)C[C@H](C)[C@@H](CN(C)S(C)(=O)=O)O3)cc1 | 20.6 µM [rising, single point] | – |
| COc1ccc(/C=N/Nc2nncn2N)cc1Br | 35.5 µM [falling, single point] | – |
| O=C(CCl)Nc1nc(-c2ccco2)c(-c2ccco2)s1 | 7.31 µM [falling, partial curve] | – |
| Cc1ccc(C(=O)NC2CCc3ccccc3C2=O)cc1 (configuration not stated) | 22.4 µM [falling, partial curve] | – |
| COc1cc2c3nnc(-c4ccc(F)cc4)c-3cn(Cc3ccccc3)c2cc1OC | 29.1 µM [rising, single point] | – |
| Cc1cc(/C=N\NC(=O)COc2cccc3cccnc23)c(C)n1-c1ccccc1 | 5.17 µM [rising, full curve, poor fit] | – |
| Cc1ccc2nc(NCc3ccccc3)c(C=NCc3cccnc3)c(=O)n2c1 | 4.47 µM [rising, full curve, poor fit] | – |
| COc1ccc(C(=O)Nc2cccc(C(=O)NCc3ccco3)c2)cc1 | 35.5 µM [falling, single point] | – |
| O=c1cc(CN2CCOCC2)c2c(ccc3ccccc32)o1 | 10 µM [rising, partial curve, poor fit] | – |
| CC(NC(=S)Nc1cccc(C(F)(F)F)c1)C(C)(C)C (configuration not stated) | 0.0891 µM [falling, full curve, poor fit] | – |
| O=C1CN(C(=O)COC(=O)CCSc2ccccc2Cl)c2ccccc2N1 | 8.2 µM [rising, partial curve] | – |
| Cc1ccccc1NC(=O)c1ccc(-c2ccc(Cl)cc2Cl)o1 | 16.4 µM [falling, partial curve] | – |
| Cn1c(Nc2ccc(Cl)cc2)cc(=O)n(C)c1=O | 7.08 µM [rising, partial curve] | – |
| CC(C)OC(=O)c1ccc(NC(=S)NC(=O)c2cncc(Br)c2)cc1 | 6.31 µM [rising, partial curve, poor fit] | – |
| O=C(Nc1ccc(Cl)c([N+](=O)[O-])c1)c1ccncc1 | 25.9 µM [rising, partial curve] | – |

Reprinted at random: 2 entries already listed.

| SMILES | AC50 [1] | AC50 [2] |
| --- | --- | --- |
| CC(=O)Nc1ccc(/C=N/Nc2nc3ccccc3[nH]2)cc1 | 18.4 µM [falling, single point] | – |
| Cc1ccc(NC(=S)N2CCC(N(C)CC3CCCO3)CC2)cc1C (configuration not stated) | 12.6 µM [rising, partial curve, poor fit] | – |
